Reference: PubChem BioAssay AID2685 (National Center for Advancing Translational Sciences (NCATS), 2010)
In all, about 320,000 compounds went through this assay and about 2,100 (0.66%) were called active. Inconclusive means that the source gave no clear call. Such entries were picked first, then a sample of the others. Calls follow the shape of the dose curve; as a rule, active = well fitted inhibition curve with a large enough effect in the signal ratio, with a control signal flat (not every such curve was filed as active); inconclusive = small, poorly fitted or top-dose-only effect, or effect the other way, or a change in a side signal; inactive = flat fitted curve, though single readings scatter; the % refers to the signal ratio. A potency beside an inconclusive call is a rough fit, not a confirmed value.

experiment: qHTS Assay for Lipid Storage Modulators in Drosophila S3 Cells; conditions: BODIPY lipid droplet fluorescence, 18-24 h, cells fed with added oleic acid; lipid storage change, negative = inhibition: at 46.1 µM (top of the series) unless noted
Summary of the method: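 Laser-scanning cytometry quantifies lipid droplet accumulation (500–530 nm total intensity; droplet/cell object ratio) in oleic acid-fed (400 uM added) Drosophila S3 cells treated with a concentration series. 20 uM Triacsin C defined 100% inhibition.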
% is scaled to controls: 0 for no effect and ±100 for the full control effect; potency is read from the fitted curve at half-maximal effect.

Lipid storage change, negative = inhibition, inconclusive:
CC(C)c1nnc(NC(=O)C2c3ccccc3Oc3ccccc32)s1 37.3%
COCC(=O)OCC(=O)c1cc(C)n(-c2ccc(Br)cc2)c1C 18.4%
Cc1cccnc1NC(=O)CSc1nnc(Cc2ccccc2)o1 -19.2%
CCC(=O)Nc1cccc(C(=O)/C=C/c2cc(Br)ccc2OC)c1 -156%
COc1ccc2c(c1)S/C(=C\C(=O)c1ccncc1)N2C -22.2%
CC(C)NC(=O)CSc1ncccc1-c1nc2ccccc2[nH]1 -12.6%
CN(CC(=O)Nc1cccc(F)c1)C(=O)c1cc([N+](=O)[O-])ccc1N1CCCCC1
O=C(COC(=O)c1cccc2c1C(=O)c1ccccc1C2=O)NC1CCCCC1 -16.2%
Cc1ccccc1S(=O)(=O)c1cc(C#N)c(=O)[nH]c1N 15.1%
CN(C)c1nc(OCCNC(=O)Nc2ccccc2)nc(N(C)C)n1 10.9%
CCOC(=O)C1=C(C)C(c2cccc(Oc3ccccc3)c2)NC(=S)N1 (centres undefined) -3.35%
COc1ccc2cc(C(=O)N3CCOCC3)sc(=O)c2c1OC 0.077%
S=c1[nH]nc(-c2ccccc2)n1C1C=CCCC1 (centres undefined) -22.7%
Cc1cc(C(=O)CSc2nn(-c3ccccc3)c(=S)s2)c(C)n1Cc1ccco1 46.2%
Cc1ccc(C(=O)N2CCN(c3ncccn3)CC2)c(C)c1 31.2%
O=C(COC(=O)CNC(=O)c1sc2ccccc2c1Cl)Nc1cc(Cl)cc(Cl)c1 -13.5%
O=C(CSc1oc(-c2cccs2)nc1S(=O)(=O)c1ccc(F)cc1)NCC1CCCO1 (centres undefined) 38.8%
CCOc1ccccc1N=Cc1c(O)c2ccccc2oc1=O 12.3%
CC(Sc1nnc(-c2cccnc2)o1)C(=O)NC1CCCCC1 (centres undefined) 26.1%
Cc1cc(SCC(=O)N2CCCC2)nc2ccccc12 17.6%
O=C(/C=C/c1ccccc1Cl)N(Cc1ccc(Cl)cc1)C1CCS(=O)(=O)C1 (centres undefined) -21.6%
Cc1nnc(-c2cccc(Br)c2)c2cn(-c3ccc(Br)cc3)nc12 -29%
CC(=O)Nc1nnc(SCC(=O)Nc2ccc3c(c2)OCCO3)s1 -30.5%
Cc1cc(C)cc(Nc2nc3ccc(C)cc3n3cnnc23)c1 -9.67%
Cc1ccc(NC(=O)c2ccccc2OCC(=O)Nc2ccccc2F)cc1S(=O)(=O)N(C)C 0.93%
C#CCOCCOCCOCCNc1nc(N2CCN(C(=O)CCCCCCCCCCNC(=O)Cn3cc(C[C@@H](C)O)nn3)CC2)nc(N2CCN(C(=O)CCCCCCCCCCNC(=O)[C@@H](CCC(=O)O)n3cc(CCCCCN)nn3)CC2)n1 12.8%
CCN(CC)CCNC(=O)c1ccc(NC(=O)C2CC(=O)N(c3ccc4c(c3)OCCO4)C2)cc1 (centres undefined)
COc1ccc(OC)c(NC(=O)C2CCCN2C(=O)NC2CCCCC2)c1 (centres undefined) 25%
Cc1ccccc1-c1nnc(SC(C)C(=O)NC2CCCC2)o1 (centres undefined) 2.85%
O=C(Cn1cncn1)c1ccc(F)cc1F -2.08%
O=C(Cn1c(=O)cnc2ccccc21)NNC(=O)c1ccccc1Cl -3.35%
COc1ccc(-c2c(-c3cc(OC)cc(OC)c3)n(C)c3ccc(Br)cc23)cc1 5.33%
CC(=O)c1ccc(NC(=O)CN2CCN(S(=O)(=O)c3ccc4ccccc4c3)CC2)cc1 26.5%
Cc1c(C(=O)Nc2ccccc2)cn2c(nc3ccccc32)c1C#N 10.6%
CCC(C(=O)NC(C)(C)C)N(C(=O)Cn1nnc(-c2ccccc2F)n1)c1cccc2c1CCCC2 (centres undefined) 83.2%
C#CCOCCOCCOCCNc1nc(N2CCN(C(=O)CCCCCCCCCCNC(=O)Cn3cc(CCCCCN)nn3)CC2)nc(N2CCN(C(=O)CCCCCCCCCCNC(=O)Cn3cc(CCCCCN)nn3)CC2)n1 -3.14%

Lipid storage change, negative = inhibition, inactive:
Cc1cccc(C(=O)NCCC(=O)NCc2ccccc2F)c1 -21.2%

Potency, inconclusive:
O=[N+]([O-])c1ccc(N2CCCCC2)c(-c2nn[nH]n2)c1 29.1 µM [falling, single point]
c1ccc(Cn2nnc3c(NCc4ccc5c(c4)OCO5)nc(C4CC4)nc32)cc1 1.46 µM [activator, partial curve]
COc1ccc2ccccc2c1CN1CCN(C)CC1 6.51 µM [activator, single point]
CCn1nc(C)cc1C(=O)N1CCCC(Nc2ccc(C(C)C)cc2)C1 (centres undefined) 0.651 µM [falling, full curve, poor fit]
Nc1cc(S(=O)(=O)Nc2cc(Cl)ccc2Cl)ccc1N1CCCC1 29.1 µM [activator, single point]
Cn1cccc1Cc1nnc(SCC(=O)NCc2ccccc2)n1-c1ccc(F)cc1 11.6 µM [activator, partial curve]
O=C(Nc1cccc2cccnc12)c1cccnc1 18.4 µM [activator, partial curve, poor fit]
CCN(CC)C(=O)Cn1cc(S(=O)(=O)CC(=O)Nc2ccc(C(N)=O)cc2)c2ccccc21 29.1 µM [activator, single point]
Cc1ccc(C(=O)NCN2CCN(c3ccc(F)cc3)CC2)cc1 0.0052 µM [falling, full curve, poor fit]
O=C(O)c1ccccc1C(=O)Nc1nc(-c2ccccc2)cs1 29.1 µM [activator, single point]
NC(=O)c1c(NC(=O)c2ccccc2)sc2c1CCN(Cc1ccccc1)C2 29.1 µM [rising, single point]

Reprinted at random: 3 entries already listed
Potency, inconclusive:
Cc1ccc(C(=O)NCN2CCN(c3ccc(F)cc3)CC2)cc1 0.0052 µM [falling, full curve, poor fit]
COc1ccc2ccccc2c1CN1CCN(C)CC1 6.51 µM [activator, single point]
CCN(CC)C(=O)Cn1cc(S(=O)(=O)CC(=O)Nc2ccc(C(N)=O)cc2)c2ccccc21 29.1 µM [activator, single point]

Following part:

outcome, inactive:
COc1ccc(NC(=O)c2oc3ccccc3c2C)cn1 inactive [at 46.1 µM]
